Reference: PubChem BioAssay AID2685 (National Center for Advancing Translational Sciences (NCATS), 2010)
About 2,100 (0.66%) of roughly 320,000 compounds were called active. Inconclusive results, whose numbers are uncertain, are shown with a selection of clear calls. The call rests on the fitted dose curve; in most records, active means well fitted inhibition curve with a large enough effect in the signal ratio, with a control signal flat (not every such curve was filed as active); inconclusive means small, poorly fitted or top-dose-only effect, or effect the other way, or a change in a side signal; inactive means flat fitted curve, though single readings scatter; the % refers to the signal ratio. Potencies beside an inconclusive call are fits to weak or partial responses and may not hold up.

Assay: qHTS Assay for Lipid Storage Modulators in Drosophila S3 Cells
Details: BODIPY lipid droplet fluorescence, 18-24 h, cells fed with added oleic acid; lipid storage change, negative = inhibition: at 46.1 µM (top of the series) unless noted
In short: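 Drosophila S3 cells loaded with oleic acid (400 uM, as added) and compounds at several concentrations; lipid droplets imaged by 488-nm laser-scanning cytometry, 500–530 nm intensity and object ratio to cell channel. Percent activity normalized to 20 uM Triacsin C.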
On the % scale 0 is the no-effect control and ±100 the full control effect; potency means the concentration at half of the fitted maximal effect.

SMILES | lipid storage change, negative = inhibition | Potency
COC(=O)c1cc(C(=O)NCCC(C)C)cc([N+](=O)[O-])c1 | inconclusive: -5.72% | 
COc1ccc(CNC(=O)c2ccc(NS(=O)(=O)c3c(C)noc3C)cc2)cc1 | inconclusive: -0.461% | 
Cc1nc(SCc2ccccc2F)c2cnn(-c3ccccc3)c2n1 | inconclusive: -16.9% | 
Cc1ccc(/C=C/C(=O)Nc2ccc(N(C)C)cc2)o1 |  | inconclusive: 1.46 µM [rising, full curve]
O=C(CSCc1ccccc1)N1CCN(c2cccc(C(F)(F)F)c2)CC1 | inconclusive: 108% | 
CN(C)c1ccc(NC(=O)Cc2ccccc2)c2ccccc12 | inconclusive: 6.25% | 
CC1CN(C(=O)COC(=O)c2ccc(NC(=O)CC#N)cc2)CC(C)O1 (stereo not given) | inactive | 
CCCS(=O)(=O)c1c(S(=O)(=O)CCC)c2ccc(C(N)=O)cn2c1C(=O)c1ccc(OC)cc1 | inconclusive: 24.3% | 
COc1ccccc1N1CCN(S(=O)(=O)c2ccc3c(c2)NC(=O)C(C)C(=O)N3)CC1 (stereo not given) | inconclusive: -0.47% | 
Cc1cccn2cc(CNC(=O)c3ccco3)nc12 | inconclusive: 153% | 
COCCNC(=O)CN(c1cc(Cl)ccc1OC)S(C)(=O)=O | inconclusive: -17.3% | 
CCC1CCCCN1CCCNC(=O)Cn1nc(-c2ccccc2)ccc1=O (stereo not given) | inconclusive: 1.4% | 
COC(=O)N1CCCc2cc(C)ccc21 | inconclusive: -16.9% | 
OC1(c2cccc(F)c2)CCN(Cc2ccncc2)CC1 |  | inconclusive: 0.206 µM [falling, full curve, poor fit]
Cc1ccc(NC(=O)CSc2nc3c([nH]c4ccccc43)c(=O)n2C)cc1 |  | inconclusive: 0.0731 µM [activator, full curve]
COC(=O)c1sccc1N/N=C(\C)c1ccc(F)c(Cl)c1 | inconclusive: 7.2% | 
Cc1ccccc1NC(=O)OCc1cccnc1Oc1ccc(Cl)cc1 |  | inconclusive: 29.1 µM [rising, single point]
Cc1c(Cc2ccccc2)c(=O)oc2c(C)c(OCC(=O)N3CCC(C(=O)O)CC3)ccc12 |  | inconclusive: 6.51 µM [falling, single point]
Cc1ccc(NS(=O)(=O)c2cc(NC(=O)C(C)Oc3ccccc3)ccc2C)c(C)c1 (stereo not given) |  | inconclusive: 0.92 µM [activator, partial curve]
CC(Cc1cccnc1)NC(=O)c1cc(COc2ccc(F)cc2F)on1 (stereo not given) |  | inconclusive: 13 µM [falling, partial curve]
CCN1CCN(C(c2cccnc2)c2cc(Cl)c3cccnc3c2O)CC1 (stereo not given) |  | inconclusive: 14.6 µM [activator, single point]
Oc1oc(-c2ccc(Br)cc2)nc1/C=N/c1ccccn1 |  | inconclusive: 13 µM [activator, partial curve]
O=C(/C=C/c1ccc(S(=O)(=O)N2CCOCC2)cc1)N1CCCCC1 | inconclusive | 
Cc1ccccc1OCC(=O)N(Cc1nnc(-c2ccc(Cl)cc2)o1)C(C)C |  | inconclusive: 14.6 µM [activator, partial curve]
CC1CN(S(=O)(=O)c2cccc(C(=O)N(C)C3CCN(C)CC3)c2)CC(C)O1 (stereo not given) | inconclusive: 8.34% | 

SMILES | lipid storage change, negative = inhibition | Potency
Cc1ccccc1N1CCN(CC(=O)Nc2ccccc2C(=O)NC2CC2)CC1 | inconclusive: 3.28% | 
CSc1cccc(NC(=O)C2CCN(S(=O)(=O)c3ccc(F)cc3)CC2)c1 |  | inconclusive: 29.1 µM [falling, single point]
CSc1nnc(NC(=O)c2nc(S(=O)(=O)Cc3ccc(C)cc3)ncc2Cl)s1 |  | inconclusive: 6.51 µM [falling, single point]
COC(=O)c1cccc(NC(=S)N2CCN(C)CC2)c1 | inconclusive: 19.4% | 
CCCN1CCc2c(sc(NC(=O)CCS(=O)(=O)c3ccccc3)c2C(N)=O)C1 | inconclusive: 112% | 
CC(NS(=O)(=O)c1ccc2c(c1)C(C)(C)C(=O)N2C)c1ccccc1 (stereo not given) | inconclusive: -3.02% | 
N#Cc1ccc(OCC(=O)NNC(=S)NC2CCCCC2)cc1 | inconclusive: 16.8% | 
Nc1c(Cl)cc(C2=NCCn3c2c2ccc([N+](=O)[O-])cc2[n+]3[O-])cc1Cl | inactive | 
O=C(Nc1nc2c(Cl)cccc2s1)C1CC1 | inconclusive: -5.14% | 
CC(CCc1ccccc1)N1CCN(C)CC1 (stereo not given) |  | inconclusive: 23.1 µM [activator, single point]
O=C(CSc1nc2ccccc2c(=O)n1-c1ccccc1)N1CCC1 | inconclusive: 13% | 
COc1ccc(NC(=O)N2CCCC2C(=O)Nc2ccc(C)c(Cl)c2)cc1 (stereo not given) | inconclusive: -40.4% | 
O=C1CCCN1c1ncc(S(=O)(=O)c2ccc([N+](=O)[O-])cc2)s1 |  | inconclusive: 0.116 µM [activator, full curve, poor fit]
COc1ccc(OC)c(N(CC(=O)O)S(=O)(=O)c2ccc(OC)c(OC)c2)c1 | inconclusive: -24.7% | 
COc1cccc(-c2nc(CS(=O)(=O)CC(=O)N3CCCCC3)c(C)o2)c1 | inconclusive: -3.26% | 
O=C(Nc1cccc(C(F)(F)F)c1)Oc1ccccc1N1CCOCC1 | inconclusive: -31.6% | 
CCOc1ccc(N(CC(=O)N2CCN(Cc3ccccc3)CC2)S(C)(=O)=O)cc1 |  | inconclusive: 29.1 µM [activator, single point]
COc1ccc(C(=O)c2c(C)c3ccccc3n2CC(O)CNC(C)C)cc1 (stereo not given) | inconclusive: -22% | 
CCCN(CCC)C(=S)Nc1cc(C(=O)OC)ccc1C(=O)OC | inconclusive: 29.9% | 
O=C(CC1CCCCC1)N1CCC(c2nc(-c3ccc(S(=O)(=O)N4CCCC4)cc3)no2)CC1 | inconclusive: -8.84% | 
CC(C)OC(=O)CN1CCN(c2ccc(Cl)cc2)CC1 | inconclusive: -2.35% | 
CCn1c(C)[n+](CCOCC[n+]2c(C)n(CC)c3cc(Cl)c(Cl)cc32)c2cc(Cl)c(Cl)cc21 |  | inconclusive: 0.326 µM [falling, full curve, poor fit]
CN(CC(=O)Nc1ccccc1Br)C(=O)Cn1[nH]c(=O)c2ccccc2c1=O | inconclusive: -44.6% | 
CSc1cccc(CNC(=O)C2CCC(=O)N(CC3CCCCC3)C2)c1 (stereo not given) | inconclusive: -11.5% | 
CCC(C)NC(=O)c1cc(S(=O)(=O)N2CCCCC2)c[nH]1 (stereo not given) | inconclusive: 4.69% | 

Nothing new here: 15 of the compounds above.
SMILES | lipid storage change, negative = inhibition | Potency
CC(CCc1ccccc1)N1CCN(C)CC1 (stereo not given) |  | inconclusive: 23.1 µM [activator, single point]
O=C(CSc1nc2ccccc2c(=O)n1-c1ccccc1)N1CCC1 | inconclusive: 13% | 
COc1ccc(NC(=O)N2CCCC2C(=O)Nc2ccc(C)c(Cl)c2)cc1 (stereo not given) | inconclusive: -40.4% | 
O=C1CCCN1c1ncc(S(=O)(=O)c2ccc([N+](=O)[O-])cc2)s1 |  | inconclusive: 0.116 µM [activator, full curve, poor fit]
COc1ccc(OC)c(N(CC(=O)O)S(=O)(=O)c2ccc(OC)c(OC)c2)c1 | inconclusive: -24.7% | 
COc1cccc(-c2nc(CS(=O)(=O)CC(=O)N3CCCCC3)c(C)o2)c1 | inconclusive: -3.26% | 
O=C(Nc1cccc(C(F)(F)F)c1)Oc1ccccc1N1CCOCC1 | inconclusive: -31.6% | 
CCOc1ccc(N(CC(=O)N2CCN(Cc3ccccc3)CC2)S(C)(=O)=O)cc1 |  | inconclusive: 29.1 µM [activator, single point]
COc1ccc(C(=O)c2c(C)c3ccccc3n2CC(O)CNC(C)C)cc1 (stereo not given) | inconclusive: -22% | 
CCCN(CCC)C(=S)Nc1cc(C(=O)OC)ccc1C(=O)OC | inconclusive: 29.9% | 
O=C(CC1CCCCC1)N1CCC(c2nc(-c3ccc(S(=O)(=O)N4CCCC4)cc3)no2)CC1 | inconclusive: -8.84% | 
CC(C)OC(=O)CN1CCN(c2ccc(Cl)cc2)CC1 | inconclusive: -2.35% | 
CCn1c(C)[n+](CCOCC[n+]2c(C)n(CC)c3cc(Cl)c(Cl)cc32)c2cc(Cl)c(Cl)cc21 |  | inconclusive: 0.326 µM [falling, full curve, poor fit]
CN(CC(=O)Nc1ccccc1Br)C(=O)Cn1[nH]c(=O)c2ccccc2c1=O | inconclusive: -44.6% | 
CSc1cccc(CNC(=O)C2CCC(=O)N(CC3CCCCC3)C2)c1 (stereo not given) | inconclusive: -11.5% | 

The list goes on.

SMILES | lipid storage change, negative = inhibition | Potency
COc1ccc(N2CCN(Cc3cc(=O)oc4ccc(Cl)cc34)CC2)cc1 | inconclusive: 38.5% | 
Cc1c(NS(=O)(=O)c2ccc3[nH]c(=O)[nH]c3c2)c(=O)n(-c2ccccc2)n1C |  | inconclusive: 29.1 µM [falling, single point]
CN(C(=O)COC(=O)c1cccc(S(=O)(=O)N2CCCCC2)c1)C1CCS(=O)(=O)C1 (stereo not given) | inconclusive: 1.71% | 
CCCCn1c(=O)[nH]c(=O)c2c1nc(-c1ccc([N+](=O)[O-])cc1)n2CC |  | inconclusive: 0.731 µM [activator, single point]
CCN(CC(=O)Nc1c(F)cccc1F)C(=O)c1ccc(S(=O)(=O)N2CCCCCC2)cc1 | inconclusive: 4.08% | 
Cc1cccc(NC(=O)CSc2nnc(NC(=O)C3CC3)s2)c1C | inconclusive: 2.48% | 
CS(=O)(=O)N(CC(=O)N1CCc2ccccc2C1)Cc1ccc(F)cc1 |  | active: 0.13 µM
O=C(Nc1ccccc1)N(C1=NCCC1)c1ccccc1 | inconclusive: 42.9% | 
COc1ccc2c(c1OC)C(=O)OC2Nc1nc(-c2ccccc2)cs1 (stereo not given) | inconclusive: -44.3% | 
Cc1ccc(C(C(=O)NCc2ccccc2)N(Cc2ccco2)C(=O)c2snc(C(N)=O)c2N)o1 (stereo not given) | inconclusive: -100% | 
C=CCn1cccc(C(=O)Nc2ccc(SC)cc2)c1=O |  | active: 4.11 µM
N#Cc1ccc(CN2CCN(C(=O)c3ccc(S(=O)(=O)NCc4ccco4)cc3)CC2)cc1 | inconclusive: 10.6% | 
O=C(CCc1ccc(S(=O)(=O)N2CCOCC2)cc1)NCCCN1CCCC1=O | inconclusive: -28.8% | 
COc1ccc(NC(=O)COc2ccc(C(=O)c3ccc(F)cc3)cc2)cc1S(N)(=O)=O |  | inconclusive: 0.146 µM [activator, single point]
CN(C(=O)CSc1nc2ccccc2c(=O)n1-c1ccc(F)cc1)C1CCS(=O)(=O)C1 (stereo not given) |  | inconclusive: 5.17 µM [falling, full curve]
CN(/C=C/C(=C/C=[N+](C)c1ccccc1)OCCCS(=O)(=O)[O-])c1ccccc1 |  | inconclusive: 4.11 µM [cytotoxic, full curve, poor fit]
Cc1ccc(N(C(=O)CNC(=O)c2cccs2)C(C(=O)NC2CCCC2)c2ccncc2)cc1 (stereo not given) |  | inconclusive: 4.11 µM [activator, partial curve, poor fit]
CC1Cc2cc(C(=O)O)ccc2O1 (stereo not given) | inconclusive: -8.6% | 
Cc1ccc(C)c(OCC(O)CN2CCC(C)CC2)c1C (stereo not given) | inconclusive: -31.5% | 
CSc1nc(C)c(CCOCc2ccccc2)c(=O)[nH]1 |  | inconclusive: 18.4 µM [falling, partial curve, poor fit]
O=C(Cn1c(=O)oc2cc(S(=O)(=O)N3CCCC3)ccc21)N1CCc2ccccc2C1 |  | inconclusive: 6.51 µM [activator, single point]
O=C(O)c1ccc(N2C(=O)CC(Cc3ccccc3)C2=O)cc1 (stereo not given) | inconclusive: -14.4% | 
O=C(OCc1nnc(-c2ccc(Br)cc2)o1)c1cncc(Br)c1 | inconclusive: 13.6% | 
c1ccc(OCCN2CCOCC2)cc1 | inconclusive: 82.3% | 
CCc1ccccc1OCC(=O)Nc1ccc(F)c(S(=O)(=O)N2CCOCC2)c1 |  | inconclusive: 0.103 µM [falling, full curve, poor fit]
